Reference: patent US20150072933A1, “NOVEL SEQUENCES FOR THE CONTROL OF REPRODUCTION IN FISH” (Yissum Research Development Company of the Hebrew …, priority 2011, published 2015)
No constants are given. Whether binding was seen depends on the method and setting. Some binding calls cover weakened binding; strength is not graded here.

Assays:
[1] = target: T1, zebrafish Tac3ra (tac3 receptor a, NKB receptor) (zebrafish); experiment: inferred from SRE-Luc/CRE-Luc transactivation in receptor-transfected COS-7 cells
T1 sequence: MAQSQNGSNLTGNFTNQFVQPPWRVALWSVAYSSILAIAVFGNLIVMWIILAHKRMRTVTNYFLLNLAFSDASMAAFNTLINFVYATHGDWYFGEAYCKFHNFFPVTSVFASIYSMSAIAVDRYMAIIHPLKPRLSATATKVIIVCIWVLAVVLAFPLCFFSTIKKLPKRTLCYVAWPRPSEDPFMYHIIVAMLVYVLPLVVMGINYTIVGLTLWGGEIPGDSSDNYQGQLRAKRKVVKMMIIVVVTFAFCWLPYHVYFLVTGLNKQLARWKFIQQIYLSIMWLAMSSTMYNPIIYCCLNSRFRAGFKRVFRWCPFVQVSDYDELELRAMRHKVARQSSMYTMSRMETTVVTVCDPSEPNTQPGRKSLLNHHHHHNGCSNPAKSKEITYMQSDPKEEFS

[2] = target: T2, zebrafish Tac3rb (tac3 receptor b, NKB receptor) (zebrafish); experiment: as above
T2 sequence: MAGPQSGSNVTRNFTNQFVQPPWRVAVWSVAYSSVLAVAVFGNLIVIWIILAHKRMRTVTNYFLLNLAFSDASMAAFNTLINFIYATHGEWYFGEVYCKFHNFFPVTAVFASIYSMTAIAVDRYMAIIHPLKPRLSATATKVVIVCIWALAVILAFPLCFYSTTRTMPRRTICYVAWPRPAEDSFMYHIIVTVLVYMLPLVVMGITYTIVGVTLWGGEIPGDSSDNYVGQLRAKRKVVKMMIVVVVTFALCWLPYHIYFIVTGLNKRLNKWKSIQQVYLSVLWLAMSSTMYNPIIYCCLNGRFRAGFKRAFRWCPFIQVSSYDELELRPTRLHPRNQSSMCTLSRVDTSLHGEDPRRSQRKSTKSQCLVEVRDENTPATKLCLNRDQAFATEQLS

binding [1]: binds
binding [2]: binds
Binder: STGINREAHLPFRPNMNDIFVGLL (C-terminal amide (-NH2)) [Zebrafish Tac3b peptide, neurokinin Bb (…-NH2)]
